Measured values reported in PubChem BioAssay AID1688 (National Center for Advancing Translational Sciences (NCATS), 2009).
Hit rate of the full screen: of about 220,000 compounds, about 2,400 (1.1%) were called active. This list was built around the results that the source calls inconclusive (neither active nor inactive); the mix of calls is not that of the screen. Calls come from the whole dose curve; as a rule, active = well fitted inhibition curve with a large enough effect; inconclusive = small, poorly fitted or top-dose-only effect, or effect the other way; inactive = no such curve, though single readings can be large or run the other way. Potencies beside an inconclusive call are fits to weak or partial responses and may not hold up.

test: qHTS Multiplex Assay to Identify Dual Action Probes in a Cell Model of Huntington: Aggregate Formation (GFP); settings: PC12 HttQ103-GFP aggregates, Acumen cytometry, 40 h; activity change, negative = inhibition: at 46.1 µM (top of the series) unless noted; note: nearly all actives have a fitted effect of over 60% in size
In short: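 PC12/HTTQ103-GFP, ecdysone-inducible; teb 100 nM; cpd qHTS titration; GFP aggregates read on laser cytometer, Ex 488/Em 500-530 nm.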
% is set by controls: 0 for no effect and ±100 for the full control effect; potency is the fitted concentration of half-maximal effect.

SMILES	Potency	activity change, negative = inhibition
Cc1nc2ccccc2cc1C(=O)NCc1ccc(F)cc1	inconclusive: 4.47 µM [inhibitor, partial curve]	–
COC(=O)NC(NC(=S)Nc1ccc([N+](=O)[O-])cc1)C(Cl)(Cl)Cl (configuration not stated)	inconclusive: 22.4 µM [inhibitor, single point]	–
CCCN(CC(=O)Nc1ccc(F)c(F)c1F)CC(=O)Nc1c(Cl)cccc1Cl	inactive	–
CC(C)(C)n1ncc2c(=O)n(CC(=O)Nc3ccc(Cl)cc3)cnc21	inactive	–
CCOC(=O)N1CCC(N(CCN(C)C)C(=S)Nc2cccc(OC)c2)CC1	inactive	–
Fc1cccc(Cl)c1/C=N/Nc1c(Cl)cncc1Cl	inconclusive: 35.5 µM [inhibitor, single point]	–
Oc1ccc(-c2onc(C(F)(F)F)c2-c2cscn2)c(O)c1	inconclusive: 35.5 µM [inhibitor, single point]	–
Cc1ccc(-c2noc(C3CCCN(C(=O)c4c(F)cccc4F)C3)n2)cc1 (configuration not stated)	inconclusive: 25.1 µM [inhibitor, single point]	–
O=C(CSc1nc(-c2ccc(F)cc2)nc2c1Cc1ccccc1O2)Nc1cccc(C(=O)O)c1	inconclusive: 35.5 µM [inhibitor, single point]	–
CCOC(=O)C1=C(C(F)(F)F)Nc2ncnn2C1c1cc(OC)ccc1OC (configuration not stated)	inconclusive: 1.26 µM [activator, single point]	–
O=C1CC(c2ccccc2)CC(O)=C1C=Nc1ccc(Cl)cc1 (configuration not stated)	inconclusive: 35.5 µM [inhibitor, single point]	–
COc1ccc(SCC(=O)c2cc(C)c(OC(=S)N(C)C)c(C)c2)cc1	inconclusive: 35.5 µM [inhibitor, single point]	–
COc1cc(/C=N/Nc2nc3ccccc3[nH]2)cc(Br)c1OCC(=O)N(C)C	inconclusive: 11.2 µM [activator, partial curve]	–
CC(=O)c1c(Nc2ccccc2)sc(C(=O)c2ccccc2)c1C	inconclusive: 35.5 µM [inhibitor, single point]	–
COc1ccc(N=Cc2cc3c(cc2O)OC(N)=C(C#N)C3c2ccccc2)cc1 (configuration not stated)	active: 7.94 µM	–
CC(=O)Oc1ccc2ccccc2c1C(NC(=O)Cc1ccccc1)c1ccc(Cl)cc1 (configuration not stated)	inconclusive: 35.5 µM [inhibitor, single point]	–
COc1cc(OC)cc(-c2nc3ccccc3c(=O)n2OC(=O)c2ccc(C)c(C)c2)c1	inconclusive: 10 µM [inhibitor, partial curve]	–
COc1ccc(-c2cc(N)n(S(=O)(=O)c3ccc(C)cc3)n2)c(OC)c1	inactive	–
CCS(=O)(=O)Nc1ccc(Cc2ccc(NS(=O)(=O)CC)cc2)cc1	inconclusive: 35.5 µM [inhibitor, single point]	–
CC1=C(C(=O)N(C)C)C(c2ccc(N3CCOCC3)cc2)NC(=O)N1 (configuration not stated)	inactive	–
CC(C)(C)NC[C@@H](O)c1ccc(O)c(CO)n1	inactive	–
Cc1ccc(C)c(S(=O)(=O)Nc2ccccc2C(=O)Nc2cc(C)on2)c1	active: 10 µM	–
CCc1cc2c(NC(C(=O)O)C(C)C)ncnc2s1 (configuration not stated)	inactive	–
CC(Sc1nnc(-c2ccccc2)c(-c2ccccc2)n1)C(=O)Nc1ncc(Cl)cc1Cl (configuration not stated)	inactive	–

Molecules from the list above that contain a CF3 group, in the order listed:
SMILES	Potency	activity change, negative = inhibition
Oc1ccc(-c2onc(C(F)(F)F)c2-c2cscn2)c(O)c1	inconclusive: 35.5 µM [inhibitor, single point]	–
CCOC(=O)C1=C(C(F)(F)F)Nc2ncnn2C1c1cc(OC)ccc1OC (configuration not stated)	inconclusive: 1.26 µM [activator, single point]	–

Part of the list above, bar-delimited:
SMILES | Potency | activity change, negative = inhibition
COC(=O)NC(NC(=S)Nc1ccc([N+](=O)[O-])cc1)C(Cl)(Cl)Cl (configuration not stated) | inconclusive: 22.4 µM [inhibitor, single point] | –
COc1cc(OC)cc(-c2nc3ccccc3c(=O)n2OC(=O)c2ccc(C)c(C)c2)c1 | inconclusive: 10 µM [inhibitor, partial curve] | –

Following part:

SMILES	Potency	activity change, negative = inhibition
COC(=O)C1C(=O)c2c([nH]c(C(=O)OC3CCCC3)c2C)CC1C (configuration not stated)	inactive	–
O=C(NC(N1CCCCCC1)C(Cl)(Cl)Cl)c1ccccc1Cl (configuration not stated)	inactive	–
COC(=O)c1c(N)sc(Cc2ccccc2)c1C	–	inactive: 13.6% [at 9.22 µM]
O=C(O)COc1ccc(Oc2ccccc2)cc1	inactive	–
COc1ccc(Nc2nc(N3CCCCC3)c3ccccc3n2)cc1	active: 17.8 µM	–
c1nc2sc3c(c2c2nnnn12)CCC3	inconclusive: 8.91 µM [inhibitor, partial curve]	–
CCOc1ccccc1N1Cc2cc(C)c(C)cc2C1	inconclusive: 12.6 µM [inhibitor, single point]	–
COc1ccc(OC)c(NC(=O)Nc2cccc(Cn3cccn3)c2)c1	inconclusive: 5.01 µM [inhibitor, full curve]	–
NS(=O)(=O)c1ccc(Nc2nc(-c3ccccc3)cs2)cc1	active: 11.2 µM	–
C=CCN1C(=O)C2(C(C(=O)c3ccc(C)o3)=C(O)C(=O)N2CCCN2CCOCC2)c2ccccc21 (configuration not stated)	inactive	–
COc1ccc(/C=C(\C#N)C(=O)OCC(=O)NCc2ccccc2)cc1	inactive	–
COc1cc(C(=O)N2CCC(c3nc(-c4cccnc4)no3)CC2)cc(OC)c1OC	inconclusive: 5.62 µM [inhibitor, single point]	–
CCCCCCC1CCC(C(=O)N2CCOCC2)CC1 (configuration not stated)	inconclusive: 35.5 µM [inhibitor, single point]	–
COc1ccc(NC(=O)/C(C#N)=C\c2cc(C)n(-c3ccc4c(c3)OCO4)c2C)cc1	inconclusive: 3.55 µM [inhibitor, single point]	–
CCOC(=O)C1=C(C)C(c2ccccc2O)NC(=O)N1 (configuration not stated)	inconclusive: 0.562 µM [inhibitor, full curve, poor fit]	–
COC(=O)c1ccc2c(c1)C(C)(C)C(/C=C/c1ccc(O)cc1)=[N+]2C	–	inactive: -23.9% [at 9.22 µM]
Cc1ccc(-c2nn(-c3ccccc3)cc2CNCc2ccccc2)cc1	inconclusive: 35.5 µM [inhibitor, single point]	–
O=C1NC(=Nc2ccc(Cl)cc2)SC1Cc1cccc(Cl)c1Cl (configuration not stated)	inconclusive: 35.5 µM [inhibitor, single point]	–
CCn1c(=O)c(C(=O)CN2CCN(S(=O)(=O)c3ccc(C)cc3C)CC2)c(N)n(Cc2ccccc2)c1=O	inconclusive: 35.5 µM [inhibitor, single point]	–
CN(C)c1ccc(C=Nc2ccccc2)cc1	inactive	–
Cc1cccc(-n2nc(CC#N)c(C#N)c2N)c1	inactive	–
CCCCn1c(NC(=O)c2ccco2)c(S(=O)(=O)c2ccc(C)cc2)c2nc3ccccc3nc21	inconclusive: 14.1 µM [activator, partial curve, poor fit]	–
CCCN(CCC)C(=O)c1ccc2c(c1)N(Cc1ccccc1)C(=O)CS2=O (configuration not stated)	inconclusive: 6.31 µM [activator, full curve]	–
O=c1/c(=C\c2cccnc2)sc2nc3ccccc3n12	inactive	–

SMILES	Potency	activity change, negative = inhibition
COc1ccc(OC)c(NC(=O)CSCC(=O)O)c1	inactive	–
COc1ccc(Cn2c(/C=C/c3ccccc3)nc3ccccc32)cc1	inconclusive: 25.1 µM [inhibitor, single point]	–
Cc1ccc(C2C(C#N)=C(N)Oc3cc4c(cc32)OCO4)cc1 (configuration not stated)	inconclusive: 35.5 µM [inhibitor, single point]	–
COc1ccc(C(OC(=O)c2ccco2)C(=O)NC2CCCCC2)cc1 (configuration not stated)	inconclusive: 1.26 µM [inhibitor, single point]	–
COC(=O)C1CCN(C(=O)Cc2ccc(Br)cc2)CC1	inconclusive: 3.98 µM [inhibitor, partial curve]	–
C/C(=N\NC(=O)c1ccc(CN2CCOCC2)cc1)c1ccc([N+](=O)[O-])cc1	inactive	–
O=C(Nc1ccccc1Sc1ccccc1)C1CCCO1 (configuration not stated)	inconclusive: 3.98 µM [activator, single point]	–
S=c1[nH]c2ncccc2o1	inconclusive: 3.98 µM [inhibitor, single point]	–
O=C(c1ccc2c(c1)OCCO2)C1CCN(S(=O)(=O)c2cccc(F)c2)CC1	inconclusive: 12.6 µM [inhibitor, single point]	–
O=C(CSc1nc2cc(Cl)ccc2s1)c1ccco1	–	inactive: 3.17% [at 9.22 µM]
O=c1[nH]c(/C(Cl)=C/c2cc(Cl)ccc2O)nc2cc(Cl)ccc12	inconclusive: 25.1 µM [inhibitor, single point]	–
Cc1ccc(C)c(N2CCN(C(=O)c3ccc4nc(-c5ccco5)c(-c5ccco5)nc4c3)CC2)c1	inconclusive: 15.8 µM [inhibitor, single point]	–
Oc1ccc(Cl)cc1C(C#Cc1ccccc1)N1CCOCC1 (configuration not stated)	inconclusive: 20 µM [activator, single point]	–
C[C@@H]1C=C(C(=O)O)O[C@H](OCc2ccc(CO)cc2)C1	–	inactive: 6.82% [at 9.22 µM]
CC(C)(C)c1ccc(CN(Cc2ccccc2)C(c2ccccn2)c2nnnn2C(C)(C)C)cc1 (configuration not stated)	inconclusive: 35.5 µM [inhibitor, single point]	–
O=C1C2C3C=CC(C3)C2C(=O)N1/N=C/c1cc(Br)cc([N+](=O)[O-])c1O (configuration not stated)	active: 12.6 µM	–
O=S(=O)(Nc1cc(Sc2ncn[nH]2)c(O)c2ccccc12)c1ccccc1	active: 4.47 µM	–
COc1ccccc1N1CCN(CCCC(=O)c2ccc(F)cc2)CC1	inactive	–
Cc1ccc(-c2nn(CCC(=O)O)cc2/C=C\C(=O)c2ccc(Br)cc2)cc1	–	inactive: 8.13% [at 9.22 µM]
CC(C)(C)c1nnc2sc(SCC(=O)c3ccc(Cl)cc3)nn2c1=O	inconclusive: 35.5 µM [activator, single point]	–
CCN(CC)CCN1C(=O)C(O)=C(C(C)=O)C1c1ccc(OC)c(OC)c1 (configuration not stated)	inconclusive: 11.2 µM [activator, partial curve]	–
CC(=O)c1ccc(-c2cc([C@H]3[C@H]4C=CC[C@@H](C)[C@@H]4C(=O)N3Cc3ccccc3)ccc2F)cc1	–	inactive: 13.8% [at 9.22 µM]
Cc1ccc2nc(C3CCN(S(=O)(=O)c4ccc5ccccc5c4)CC3)[nH]c2c1	active: 17.8 µM	–
Cc1ccc(NC(=S)NNc2ccc([N+](=O)[O-])cc2S(=O)(=O)Nc2ccccc2C(=O)O)cc1C	inconclusive: 35.5 µM [inhibitor, single point]	–
